## Primary screen of a compound library

A: 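Phenotypic screen: M. tuberculosis growth, glucose 7H9 medium, 3 days; the read-out is not stated. Concentration: 500 µM. The record gives no direction; compounds that gave an IC50 in retests scored well above the rest, so higher reads as more growth inhibition. About 18,000 compounds were tested under these conditions; 7.9% (about 1,400) showed 50% or more at least once.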
B: 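Growth of Mycobacterium tuberculosis over 4 days (cholesterol / DPPC medium with tyloxapol); the read-out is not stated. Tested at 500 µM. Direction is inferred from retests: higher values go with more growth inhibition. Of about 18,000 compounds tested this way, about 900 (5%) reached 50% or more in at least one test.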

Values are the deposited “Percent Effect”, in %.
How 0% and 100% were set is not recorded. Most values in the screen are low, and negative values occur.
The compounds are a random part of those screened.

Compound	A	B
COc1cccc(Cl)c1CN1CCCNCC1	60.44%	46.69%
Nc1nc(NCCc2ncc[nH]2)cc([C@H]2C[C@@H](N)C2)n1	9.859%	4.14%
COc1ccccc1CNC(=O)CC1CCS(=O)(=O)C1 (stereo unspecified)	10.23%	-0.8802%
CCNC(=O)COc1cccc(NC2CCCOC2)c1 (stereo unspecified)	10.34%	19.64%
CCC(=O)N[C@H]1CCCNC1	2.553%	-1.736%
N[C@@H]1CCc2ccccc21	23.47%	10.8%
CC(=O)NC(C(=O)N1CCc2ccccc21)C(C)C (stereo unspecified)	4.752%	2.45%
CN(c1ccc(C(=O)N2CCCCC2)cc1)S(C)(=O)=O	5.592%	11.49%
CCC(NCCCC#N)c1noc(C)n1 (stereo unspecified)	7.128%	3.417%
CCC(=O)NCCCN1CCCCCC1	-36.33%	-41.58%
CCO[C@H]1CN(C)C[C@@H]1NC(=O)c1cnc(CC)nc1	12.34%	-2.729%
CCS(=O)(=O)CCNC(=O)N1CCCC1	2.131%	-12.99%
COCCN(CC(N)=O)S(=O)(=O)c1cccc(C)c1	8.487%	-3.807%
OCCCNCC(O)COc1ccccc1 (stereo unspecified)	-5.187%	-20.93%
CC(C)(CNC(=O)CCc1ccsc1)N1CCOCC1	36.29%	32.25%
O=C(c1ccccc1F)N1CCCC1c1cccnc1 (stereo unspecified)	14.34%	15.68%
CSCC(C)(O)CNC(=O)c1cc(C(C)C)[nH]n1 (stereo unspecified)	29.64%	10.01%
CNC(=O)CN1CCC(NC(=O)Nc2cn[nH]c2)CC1	-4.956%	-12.75%
CN1CCc2nc(NC(=O)CC(C)(C)C)sc2C1	63.64%	53.16%
CCN(Cc1nc(CSC)no1)[C@H]1COC[C@@H]1O	1.046%	0.5736%
Cc1ncsc1C(=O)NCc1ccnc(N(C)C)c1	16.03%	9.778%
CN1CCC(C(=O)NC2CCOCC2)CC1=O (stereo unspecified)	7.451%	6.343%
CC(=O)NCCCSCC(=O)N1CCCCC1C (stereo unspecified)	5.984%	2.542%
C=C(C)C(C)(C)C(=O)N[C@@H]1COCC[C@H]1O	-9.25%	-8.577%
CCC(C)(C)NCc1nnnn1C1CC1	-1.67%	-2.597%
CCc1ccccc1NC(=O)C1=NN(C)C(=O)CC1	-11.31%	-20.85%
N[C@H]1C[C@@H](c2cc(NCCc3cscn3)ncn2)C1	21.48%	8.456%
CC(=O)c1cc(C#N)c(SCC(N)=O)nc1C	2.667%	1.835%
COc1c(CNc2ccc(F)cn2)c(C)nn1C	25.39%	-5.767%
CCN(Cc1cscn1)Cc1nc(COC)no1	11.74%	-10.29%
CCC(CNC(=O)C1=NN(C)C(=O)CC1)N1CCCC1 (stereo unspecified)	8.968%	0.9938%
c1cc2c(cc1CN1CCOCC1)OCO2	17.09%	26.16%
Cc1ccc2c(c1)C(N)CO2 (stereo unspecified)	5.811%	-1.281%
CCc1nn(C)c(CC)c1S(=O)(=O)N(C)CCCN	1.757%	-3.928%
COCc1nc(CN)cs1	12.06%	15.08%
CC(N[C@H]1CC[C@H](O)CC1)c1ccc(S(C)(=O)=O)cc1 (stereo partly specified)	-13.44%	-19.28%
O=C(CC1Nc2ccccc2NC1=O)NC1CCCC1 (stereo unspecified)	31.53%	10.69%
CCn1ccnc1C1CCCCN1 (stereo unspecified)	3.654%	8.924%
COc1cccc(C(N)C(C)C)n1 (stereo unspecified)	-8.135%	-8.664%
Cc1nc(NC(=O)CN2CCn3ccnc3C2)sc1C	18.59%	-6.22%
Cc1nc(N)ncc1C(=O)NCC1COCCO1 (stereo unspecified)	11.38%	4.482%
Cc1ccc(C(=O)NCCCN(C)C)o1	1.709%	-10.58%
CCCN1CCC(CNC(=O)Cc2cc(C)no2)C1 (stereo unspecified)	20.52%	2.891%
Cc1nnnn1CCC(=O)N1C[C@H]2CC[C@@H](C1)[C@H]2O	-17.53%	-37.03%
CC(N)c1ccc(Br)cc1OCCO (stereo unspecified)	29.33%	13.3%
NC1(c2noc(C(F)F)n2)CCC1	0.6085%	-12.34%
Cc1ccc(NC(=O)NCc2cnn(C)c2C)nc1	39.69%	8.496%
CN1CCCC1CCSCC(=O)Nc1ccccn1 (stereo unspecified)	-5.973%	-12.32%
NC(=O)c1ccc(NCC(=O)N2CCOCC2)cc1Cl	2.719%	-11.33%
CC(C)N(CCS(C)(=O)=O)C(=O)NCc1cccs1	23.97%	11.78%
Cn1ccc(C(=O)N2CCC2c2ccccc2)cc1=O (stereo unspecified)	14.23%	-2.283%
C[C@@H](N)C(=O)N1CCC(OCCCc2ccccc2)C1 (stereo partly specified)	43.84%	44.18%
CN1CCC(NC(=O)c2ccc(C#N)cc2)CC1	-18.27%	-17.61%
Cc1cccc(NCCCNC(=O)c2cccs2)n1	62.89%	40.04%
CCN1CCN(CC(=O)Nc2cc(C)ccc2C)CC1	19.28%	12.53%
CS(=O)(=O)NCCc1ccccc1F	27.38%	17.53%
CC(C)NC(=O)NC(=O)C(C)N1CCOCC1 (stereo unspecified)	4.952%	-9.962%

Once more, the final 4:

* Cc1cccc(NCCCNC(=O)c2cccs2)n1 : A: 62.89%; B: 40.04%
* CCN1CCN(CC(=O)Nc2cc(C)ccc2C)CC1 : A: 19.28%; B: 12.53%
* CS(=O)(=O)NCCc1ccccc1F : A: 27.38%; B: 17.53%
* CC(C)NC(=O)NC(=O)C(C)N1CCOCC1 (stereo unspecified) : A: 4.952%; B: -9.962%

Data taken from ChEMBL document CHEMBL3988442, “University of Dundee, Small-Polar-MMV Screening Library” (2021).